Experimental data: PubChem BioAssay AID652272 (Drosophila RNAi Screening Center, 2013)

- Purpose: 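Genes whose knock-down decreases or increases Hedgehog reporter output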 (primary screen)
- Cells: Drosophila clone 8 (Cl8) cells
- Knock-down reagent: long dsRNA against Drosophila genes
- Read-out: 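Firefly light from a Hedgehog-responsive ptc promoter reporter and Renilla reference light, both read on a plate reader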
- Reading the numbers: firefly Hh reporter signal: higher = more ptc reporter light; Renilla reference signal: higher = more Renilla control light
- Call rule: 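Hit when the z-score averaged over two replicates is under -2 or over +3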
- Meaning of the calls: active = hit: reporter lowered or raised; inactive = not a hit
The screen tested about 21,000 reagents; this is an unselected part of those that have a named target and a result. Over the whole deposit, 503 (2.4%) were called active. 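Raw plate light values, not normalised; calls rest on replicate z-scores that were not deposited; hits include reporter decreases as well as increases.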 Entries without a mark were called inactive. The numbers tell different reagents against one gene apart. A plus sign joins genes that one reagent is predicted to hit. No sequences are given here. Not given: the amount of reagent, the time to read-out.

Argl + CG9515 #1
- firefly Hh reporter signal, replicate 1: 87968
- firefly Hh reporter signal, replicate 2: 87307
- Renilla reference signal, replicate 1: 2964
- Renilla reference signal, replicate 2: 3307

Argl + CG9515 #2
- firefly Hh reporter signal, replicate 1: 1.13e5
- firefly Hh reporter signal, replicate 2: 53962
- Renilla reference signal, replicate 1: 3120
- Renilla reference signal, replicate 2: 6711

Tsf3
- firefly Hh reporter signal, replicate 1: 1.18e5
- firefly Hh reporter signal, replicate 2: 59524
- Renilla reference signal, replicate 1: 4693
- Renilla reference signal, replicate 2: 2336

Sgp
- firefly Hh reporter signal, replicate 1: 86624
- firefly Hh reporter signal, replicate 2: 46674
- Renilla reference signal, replicate 1: 3463
- Renilla reference signal, replicate 2: 1675

Eaf #1
- firefly Hh reporter signal, replicate 1: 78720
- firefly Hh reporter signal, replicate 2: 1.57e5
- Renilla reference signal, replicate 1: 2092
- Renilla reference signal, replicate 2: 6727

Eaf #2
- firefly Hh reporter signal, replicate 1: 2.39e5
- firefly Hh reporter signal, replicate 2: 1.35e5
- Renilla reference signal, replicate 1: 8822
- Renilla reference signal, replicate 2: 4241

CG10337
- firefly Hh reporter signal, replicate 1: 80651
- firefly Hh reporter signal, replicate 2: 71754
- Renilla reference signal, replicate 1: 1664
- Renilla reference signal, replicate 2: 5979

Jhe
- firefly Hh reporter signal, replicate 1: 59446
- firefly Hh reporter signal, replicate 2: 40773
- Renilla reference signal, replicate 1: 1858
- Renilla reference signal, replicate 2: 2924

dmrt11E
- firefly Hh reporter signal, replicate 1: 1.26e5
- firefly Hh reporter signal, replicate 2: 3.32e5
- Renilla reference signal, replicate 1: 2872
- Renilla reference signal, replicate 2: 11121

CG13423
- firefly Hh reporter signal, replicate 1: 85672
- firefly Hh reporter signal, replicate 2: 48887
- Renilla reference signal, replicate 1: 2521
- Renilla reference signal, replicate 2: 1682

RhoL
- firefly Hh reporter signal, replicate 1: 1.63e5
- firefly Hh reporter signal, replicate 2: 1.01e5
- Renilla reference signal, replicate 1: 6275
- Renilla reference signal, replicate 2: 4092

CG14304
- firefly Hh reporter signal, replicate 1: 4.11e5
- firefly Hh reporter signal, replicate 2: 55154
- Renilla reference signal, replicate 1: 25360
- Renilla reference signal, replicate 2: 1942

In a second layout: entries from further up
{"predicted target": "Eaf", "reagent no.": 2, "firefly Hh reporter signal, replicate 1": 2.39e5, "firefly Hh reporter signal, replicate 2": 1.35e5, "Renilla reference signal, replicate 1": 8822, "Renilla reference signal, replicate 2": 4241}
{"predicted target": "CG10337", "reagent no.": 1, "firefly Hh reporter signal, replicate 1": 80651, "firefly Hh reporter signal, replicate 2": 71754, "Renilla reference signal, replicate 1": 1664, "Renilla reference signal, replicate 2": 5979}
